# From US9932589B2, “EML4-ALK fusion gene” (Astellas Pharma Inc., priority 2006, dated 2018)
# Sequences of proteins named here, by UniProt entry; tags and fusion partners are left off. A line that says so, or that is headed by a name, gives the form on record, which may keep a tag or linker.
# UniProt Q9UM73, with tags, fused parts or gaps I1461V/K1491R/D1529E: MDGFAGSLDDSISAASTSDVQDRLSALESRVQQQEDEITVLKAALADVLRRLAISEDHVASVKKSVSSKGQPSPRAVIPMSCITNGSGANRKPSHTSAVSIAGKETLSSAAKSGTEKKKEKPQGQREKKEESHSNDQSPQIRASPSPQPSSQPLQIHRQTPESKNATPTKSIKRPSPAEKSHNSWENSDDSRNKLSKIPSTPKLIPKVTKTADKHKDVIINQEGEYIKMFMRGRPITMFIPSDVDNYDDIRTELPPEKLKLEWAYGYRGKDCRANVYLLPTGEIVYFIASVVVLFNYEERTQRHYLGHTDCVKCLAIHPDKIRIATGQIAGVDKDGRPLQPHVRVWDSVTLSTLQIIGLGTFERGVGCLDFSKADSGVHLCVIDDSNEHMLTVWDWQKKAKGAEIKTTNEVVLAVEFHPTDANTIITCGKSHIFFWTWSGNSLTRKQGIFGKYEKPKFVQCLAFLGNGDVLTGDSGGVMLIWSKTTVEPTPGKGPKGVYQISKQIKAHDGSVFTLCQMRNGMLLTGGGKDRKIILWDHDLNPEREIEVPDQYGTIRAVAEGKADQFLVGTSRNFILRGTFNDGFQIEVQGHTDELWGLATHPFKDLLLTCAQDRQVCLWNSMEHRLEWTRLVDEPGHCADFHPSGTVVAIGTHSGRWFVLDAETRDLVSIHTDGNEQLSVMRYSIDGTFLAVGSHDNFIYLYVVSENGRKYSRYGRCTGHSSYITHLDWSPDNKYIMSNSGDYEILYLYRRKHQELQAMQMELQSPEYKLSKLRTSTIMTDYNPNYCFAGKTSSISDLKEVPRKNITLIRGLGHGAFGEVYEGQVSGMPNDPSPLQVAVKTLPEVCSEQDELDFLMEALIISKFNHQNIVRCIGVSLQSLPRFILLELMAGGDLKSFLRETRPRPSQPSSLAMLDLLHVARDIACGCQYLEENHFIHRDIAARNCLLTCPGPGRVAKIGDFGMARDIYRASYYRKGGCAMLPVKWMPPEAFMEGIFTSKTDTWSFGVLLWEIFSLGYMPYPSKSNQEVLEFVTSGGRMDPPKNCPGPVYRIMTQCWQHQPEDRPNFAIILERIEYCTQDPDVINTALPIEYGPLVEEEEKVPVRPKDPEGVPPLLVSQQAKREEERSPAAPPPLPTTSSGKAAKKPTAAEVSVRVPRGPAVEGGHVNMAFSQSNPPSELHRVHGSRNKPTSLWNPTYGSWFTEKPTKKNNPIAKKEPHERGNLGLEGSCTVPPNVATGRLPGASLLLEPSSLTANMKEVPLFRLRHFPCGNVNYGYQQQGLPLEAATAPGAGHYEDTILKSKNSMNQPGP
# Some entries share one result that the patent states for a list of compounds.
# Molecular target: T1, EML4-ALK fusion polypeptide v2 (Homo sapiens, UniProt Q9UM73, D1529E/I1461V/K1491R)
# T1 construct: expressed in transfected cells; host or cells: 293EBNA cells (Invitrogen) transfected with FLAG-EML4-ALKv2/pcDNA3
# Test: intracellular autophosphorylation of EML4-ALK fusion polypeptide v2 in 293EBNA cells
# Format: cell-based
# Details: at a concentration of 0.1 μM or less
structure (smiles),measurement,value
"CNS(=O)(=O)c1ccccc1Nc1nc(Nc2ccc(N3CCN(C)CC3)cc2OC)ncc1Br [compound D, 2-[(5-bromo-2-{[2-methoxy-4-(4-methylpiperazin-1-yl)phenyl]amino}pyrimidin-4-yl)amino]-N-methylbenzenesulfonamide]",inhibition of the activity of the EML4-ALK fusion polypeptide v2,≥ 50%
